Reference: ChEMBL document CHEMBL1150589, “New sesquiterpenoids from the root of Guatteria multivenia” (J Nat Prod, 2002)
In brackets after ≈: the same amount, converted by molar mass.

Test system: Candida albicans
Experiment: Antimicrobial activity against Candida albicans
Assay type: functional, organism-based
Outline: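 Antimicrobial assay run per an earlier method. Both IC50 and MIC were reported in µg/mL. Amphotericin B was the positive control for C. albicans and C. neoformans.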

C[C@@H]1[C@H](O)[C@@H](C)/C=C/C=C/C=C/C=C/C=C/C=C/C=C/[C@H](O[C@@H]2O[C@H](C)[C@@H](O)[C@H](N)[C@@H]2O)C[C@@H]2O[C@](O)(C[C@@H](O)C[C@@H](O)[C@H](O)CC[C@@H](O)C[C@@H](O)CC(=O)O[C@H]1C)C[C@H](O)[C@H]2C(=O)O [AMPHOTERICIN B] was tested, and the MIC was 0.31 µg/mL (≈ 0.335 µM).
